Data as given in article PMC5703645.

Chains of the proteins cited; added tags and fusions are not shown. Lines headed by an entry give the natural chain unless they say otherwise; changes in a name come on top.
UniProt P0DPQ6: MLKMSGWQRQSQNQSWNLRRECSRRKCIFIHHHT

Target: altDDIT3^GFP (human) (UniProt P0DPQ6)
Assay: co-IP; GFP-Trap agarose beads on lysates of HeLa cells co-expressing both constructs; lysis 0.5% NP40, Tris-HCl 50 mM pH 7.5, NaCl 150 mM; overnight; washes with NaCl 200 mM; western blot of GFP and mCherry

- binding: binds
Substance: DDIT3^mCherry (from UniProt P35638-1 1-169)

Results are given in words; binding and its absence hold for the method and conditions named. In cells and extracts the contact can be indirect. A result given as binding can be weak or reduced; the word gives no strength.
